Test results reported in PubChem BioAssay AID2685 (National Center for Advancing Translational Sciences (NCATS), 2010).
The list shows a part of the results. The main result of the screen is listed elsewhere. These columns were measured beside it and carry no call. Compounds called inactive in the main read-out are mostly missing here. Words in brackets tell the shape of the fitted curve; partial curves, single points and poor fits give uncertain potencies.

Assay: qHTS Assay for Lipid Storage Modulators in Drosophila S3 Cells;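 for cell number change: cells counted by Cell Tracker Red CMTPX staining in the red channel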
Conditions: BODIPY lipid droplet fluorescence, 18-24 h; for cell number change: measured here: cell count max response, cells fed with added oleic acid
Method in brief: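 Laser-scanning cytometry quantifies lipid droplet accumulation (500–530 nm total intensity; droplet/cell object ratio) in oleic acid-fed (400 uM added) Drosophila S3 cells treated with a concentration series. 20 uM Triacsin C defined 100% inhibition.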

[1] = measured here: lipid fluorescence (Fed channel) AC50, cells fed with added oleic acid
[2] = measured here: cell number channel AC50, cells fed with added oleic acid

Structure (SMILES)	cell number change [%]	AC50 [1]	AC50 [2]
COc1cccc(C2CC(=O)N3CN(c4cccc(Cl)c4C)CSC3=C2C#N)c1OC (configuration not stated)	-3.95	2.59 µM [falling, full curve]	
COc1c2c(nc3ccccc13)OC(C(C)(O)CO)C2 (configuration not stated)	29.1	13 µM [falling, partial curve, poor fit]	
Cc1ccc(NC(=O)C(c2ccccc2)N2CCN(CC(=O)NC3CC3)CC2)cc1 (configuration not stated)	20.2	0.116 µM [falling, full curve, poor fit]	
O=C(Cn1cnc2ccccc21)N/N=C/C(Br)=C/c1ccccc1	-40.1	16.4 µM [falling, single point]	29.1 µM [falling, single point]
S=c1[nH]ccn1-c1cccc(Cl)c1	33.3		29.1 µM [rising, single point]
Cc1cc(=O)[nH]c(-n2[nH]c3c(c2=O)CCCC3)n1	-16.1		
CCN(CC)P(=O)(Nc1ccc([N+](=O)[O-])cc1)c1c(C)nn(CCC#N)c1NC(=O)c1ccc(Cl)cc1 (configuration not stated)	14.3	0.58 µM [rising, single point]	
Cc1ccc(-c2nn(C)c(=O)c3ccccc23)cc1CN1CCCCC1	-12.2		
COc1ccc(N2CCN(C(=O)c3cc4c(s3)-c3ccccc3OC4)CC2)cc1	28	0.00651 µM [rising, full curve, poor fit]	
CCOCCCNC(=O)COc1ccc(OC)cc1	-1.88		
O=C(CCN1C(=O)c2ccccc2C1=O)NCc1cccc(Cl)c1	17.9		0.00517 µM [rising, full curve, poor fit]
COc1ccc2[nH]c3c(c2c1)CN(C)CC3	45	0.82 µM [rising, full curve]	0.461 µM [rising, full curve]
CCC(C)NC(=O)CC1Oc2ccc(C)cc2NC1=O (configuration not stated)			2.31 µM [rising, single point]
COc1ccc(O)c(C(=O)c2cnc3c(c2)c(C)nn3CCO)c1	21.4		
CS(=O)(=O)N(Cc1ccco1)CC(O)Cn1c2ccccc2c2ccccc21 (configuration not stated)	216	1.64 µM [rising, partial curve]	23.1 µM [rising, partial curve]
Clc1ccc(C2C3=C(Nc4ncnn42)c2ccccc2CC3)cc1 (configuration not stated)		0.259 µM [rising, partial curve, poor fit]	0.291 µM [rising, full curve]
O=C(O)CCC(=O)Nc1ccc(S(=O)(=O)N2CCCC2)cc1	-8.6	3.66 µM [falling, full curve]	0.651 µM [falling, partial curve]
CCOC(=O)CNC(=O)CSc1nnc(NC(=O)c2ccc3c(c2)OCO3)s1		6.51 µM [rising, single point]	
CSc1ccccc1NC(=O)COc1nsnc1N1CCOCC1	2.45	29.1 µM [rising, single point]	
Cc1ccc(O)c(-c2cc(C(F)(F)C(F)F)[nH]n2)c1	-58.4	2.91 µM [falling, full curve, poor fit]	18.4 µM [falling, partial curve]

Structure (SMILES)	cell number change [%]	AC50 [1]	AC50 [2]
COc1cc(C(=O)Nc2ccc(S(=O)(=O)Nc3cc(C)on3)cc2)cc(OC)c1OC	3.12	3.26 µM [falling, full curve]	
Cc1nc2ccccc2c(-c2ccccc2)c1C(=O)c1ccccc1	67.6	6.51 µM [rising, single point]	7.31 µM [rising, partial curve]
CCOC(=O)c1nn(-c2ccccc2C)c(=O)cc1OCC(=O)Nc1cccc(OC)c1	-21.5		
Cc1ccc(CNCCC2=CCCCC2)cc1	-50.8	29.1 µM [falling, single point]	8.2 µM [falling, partial curve]
CCC1(C)Cc2ccccc2-c2nc3n(c(=O)c21)CC(C(=O)O)S3 (configuration not stated)	5.87		
CC1=C(C)C(c2ccccc2)NC(=S)N1 (configuration not stated)	-33.1	1.84 µM [falling, full curve, poor fit]	10.3 µM [falling, partial curve, poor fit]
CC(C(=O)Nc1nnc(C2CC2)s1)N1C(=O)C2CC=CCC2C1=O (configuration not stated)	-6.01	29.1 µM [rising, single point]	
Cc1ccc(C(=O)N2CCN(S(C)(=O)=O)C2)cc1	6.97	6.51 µM [falling, single point]	
CCc1ccc(NC(=O)CCS(=O)(=O)c2cccc3nsnc23)cc1	36.3		1.46 µM [rising, full curve, poor fit]
O=S(=O)(NC1=NCCCCC1)c1ccc(Cl)cc1Cl	28.1	0.146 µM [falling, full curve, poor fit]	
Cc1ccc(C(=O)CCC(=O)OCC(=O)Nc2c(C)nn(-c3ccccc3)c2C)cc1	-33		32.6 µM [falling, single point]
O=C(O)C1=C[C@@H](c2ccc3c(c2)OCO3)C[C@@H](OCc2ccc(CO)cc2)O1	15.2	18.4 µM [rising, single point]	
COc1cccc(N2CCN(C3C4CC5CC(C4)CC3C5)CC2)c1 (configuration not stated)	-13.9		
Cc1ccc(SC(=O)c2c([N+](=O)[O-])c(C)nn2C)cc1	-40.2	29.1 µM [falling, single point]	29.1 µM [falling, single point]
Cc1ccccc1CSCC(=O)N/N=C/c1cccs1	-16.7		0.0231 µM [falling, full curve, poor fit]
COc1cc(/C=N/NC(=O)c2ccncc2)cc2c1OCO2	-8.51		
CC(C)[C@H](NC(=O)c1ccccc1F)C(=O)Nc1nc2c(s1)CCCC2	-21	9.2 µM [rising, partial curve]	
O=C(Nc1ccc(Cl)cn1)c1cnn2cccnc12	68.7	1.64 µM [rising, partial curve]	0.82 µM [rising, full curve, poor fit]
COc1cccc(N2CCN(C(=O)c3ccc(CS(=O)c4ccc(C)cc4)o3)CC2)c1 (configuration not stated)		29.1 µM [falling, single point]	

3 entries from above, sorted by count of non-hydrogen atoms, low to high:
Structure (SMILES)	cell number change [%]	AC50 [1]	AC50 [2]
Cc1ccccc1CSCC(=O)N/N=C/c1cccs1	-16.7		0.0231 µM [falling, full curve, poor fit]
CC(C(=O)Nc1nnc(C2CC2)s1)N1C(=O)C2CC=CCC2C1=O (configuration not stated)	-6.01	29.1 µM [rising, single point]	
Cc1ccc(C(=O)CCC(=O)OCC(=O)Nc2c(C)nn(-c3ccccc3)c2C)cc1	-33		32.6 µM [falling, single point]
